This note sets out measurements from PubChem BioAssay AID204 (DTP/NCI, 2004).

The list is a part of this screen's results and no random one: it gathers some chemical classes. Not every dose and run of a compound is shown. T/C is the treated group as % of the vehicle group. Some doses have a count of surviving animals in place of a T/C: the source holds a T/C of zero for them, seemingly a mark for toxic or unscored doses. Some doses without a T/C left all or most animals alive at the check, yet need not have been tolerated: the source hardly ever lists a survival T/C far under the control, and the zero likely stands for such cases as well. Survivors were counted at the toxicity check, usually on the fifth day, unless a day is given; later deaths do not show. Schedule codes are those of the source, read here as Q, the interval in days (D) or hours (H), X, the number of doses. For survival time, the PubChem record calls one and a half times the control and up active, and a quarter to a half above the control has no call in these data; cut-offs in other NCI protocols can differ. Some T/C values are followed by the survivors on the day toxicity was checked, most often the fifth; without a count or a note in brackets, all were alive then. Some doses were run more than once; the values are given in rising order.

This experiment deals with BDF1 mice, P288 methotrexate-resistant leukemia, survival T/C. The experiment in a line: NCI In Vivo Anticancer Drug Screen. Data for tumor model P288 Lymphocytic Leukemia resistant to methotrexate; NSC 740 (intraperitoneal) in B6D2F1 (BDF1) mice. Conditions: T/C endpoint: median survival time, schedule: Q01DX010 (ip), vehicle: saline, higher T/C = longer survival. The protocol: The antitumor activity of compounds was measured in mice bearing transplantable tumors. Survival or tumor size were measured and the results are expressed as the measurement made in the treated group (T) divided by the measurement made in the vehicle treated control group (C). The tumor model used in this assay is P288 Lymphocytic Leukemia resistant to methotrexate; NSC 740 (intraperitoneal) in B6D2F1 (BDF1) mice

Turning to `CN(N=O)C(=N)N[N+](=O)[O-]`, the T/C is 140 % of control (dose: 8.0 mg/kg/injection); 110 and 135 % of control (dose: 16.0 mg/kg/injection); 95 % of control (dose: 32.0 mg/kg/injection). Further, the survivor count was 6 of 6 (dose: 8.0 mg/kg/injection), 6 of 6 (dose: 32.0 mg/kg/injection) and 6 of 6 (dose: 64.0 mg/kg/injection).
`Cc1[nH]c(=O)[nH]c(=O)c1N(CCCl)CCCl`: the T/C is 105 % of control (dose: 0.5 mg/kg/injection) and 155 % of control (dose: 1.0 mg/kg/injection). For the same molecule, the survivor count is recorded as 6 of 6 (dose: 2.0 mg/kg/injection) and 6 of 6 (dose: 4.0 mg/kg/injection).
For the molecule `NC1CCCCC1.O=P(O)(N(CCCl)CCCl)N1CC1`, the T/C by setting is: (dose: 1.25 mg/kg/injection) 119 % of control; (dose: 2.5 mg/kg/injection) 108 and 126 % of control [5 of 6 alive]; (dose: 5.0 mg/kg/injection) 120 and 134 % of control; (dose: 10.0 mg/kg/injection) 145 and 153 % of control; (dose: 20.0 mg/kg/injection) 175 % of control.
